Results as given in patent US11168075B2, “Compounds and their use for reducing uric acid levels” (Acquist LLC, priority 2016, dated 2021).
At least one structure is not confirmed: it was looked up by name or label, or the drawing left a doubt.

Sequences of proteins named here, by UniProt entry; tags and fusion partners are left off.
UniProt P47989, whole entry, species assumed: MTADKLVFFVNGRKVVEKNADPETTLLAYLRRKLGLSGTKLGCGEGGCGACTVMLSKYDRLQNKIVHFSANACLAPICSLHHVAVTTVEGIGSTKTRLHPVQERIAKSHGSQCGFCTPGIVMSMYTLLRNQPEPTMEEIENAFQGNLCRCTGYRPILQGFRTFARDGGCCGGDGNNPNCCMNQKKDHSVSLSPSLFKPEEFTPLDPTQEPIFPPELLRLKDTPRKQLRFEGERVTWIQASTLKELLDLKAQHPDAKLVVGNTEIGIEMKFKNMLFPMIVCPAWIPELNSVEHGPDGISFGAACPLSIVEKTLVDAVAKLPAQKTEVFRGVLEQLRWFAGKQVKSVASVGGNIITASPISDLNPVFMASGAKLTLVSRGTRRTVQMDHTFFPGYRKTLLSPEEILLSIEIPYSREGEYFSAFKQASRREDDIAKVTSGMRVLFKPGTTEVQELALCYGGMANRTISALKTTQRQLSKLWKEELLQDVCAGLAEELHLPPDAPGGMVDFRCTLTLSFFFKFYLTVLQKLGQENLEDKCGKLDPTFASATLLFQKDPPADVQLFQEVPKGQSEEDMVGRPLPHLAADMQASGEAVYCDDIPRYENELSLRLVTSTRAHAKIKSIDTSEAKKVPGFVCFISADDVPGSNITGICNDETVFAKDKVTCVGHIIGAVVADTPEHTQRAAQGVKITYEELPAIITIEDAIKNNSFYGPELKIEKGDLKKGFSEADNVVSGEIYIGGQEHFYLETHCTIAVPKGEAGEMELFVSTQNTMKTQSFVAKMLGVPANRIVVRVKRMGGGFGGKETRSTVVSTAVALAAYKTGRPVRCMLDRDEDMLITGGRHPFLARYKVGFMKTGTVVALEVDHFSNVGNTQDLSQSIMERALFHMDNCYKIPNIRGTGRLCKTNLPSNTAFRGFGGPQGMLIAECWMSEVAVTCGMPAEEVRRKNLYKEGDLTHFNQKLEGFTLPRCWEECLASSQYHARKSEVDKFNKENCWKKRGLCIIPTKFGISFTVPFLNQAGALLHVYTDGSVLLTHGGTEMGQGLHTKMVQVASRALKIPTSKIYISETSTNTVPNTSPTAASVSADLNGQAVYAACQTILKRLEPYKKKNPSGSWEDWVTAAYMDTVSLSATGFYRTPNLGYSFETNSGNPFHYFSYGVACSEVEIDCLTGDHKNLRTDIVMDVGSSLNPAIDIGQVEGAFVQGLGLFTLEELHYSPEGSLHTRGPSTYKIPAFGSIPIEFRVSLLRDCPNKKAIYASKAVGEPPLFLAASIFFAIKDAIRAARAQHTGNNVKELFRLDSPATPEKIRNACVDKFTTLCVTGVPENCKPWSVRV

Molecular target: xanthine oxidase (Homo sapiens (Human), UniProt P47989)
Assay: Fluorescence-based xanthine oxidase activity assay
Assay type: biochemical
Settings: statement in words

SMILES: O=c1[nH]c(O)c(/C(=N\O)Nc2ccc(-c3cnn[nH]3)cc2)c(=O)[nH]1 [Formula (Ic), (E)-N-(4-(1H-1,2,3-triazol-5-yl)phenyl)-N′-hydroxy-2,4,6-trioxohexahydro-pyrimidine-5-carboximidamide]
- inhibition of xanthine oxidase compared to allopurinol: particularly potent inhibitors
